Binding data for one molecule are collected here from patent US20220313845A1 (MYTHIC THERAPEUTICS, published 2022).

Chains of the proteins cited; added tags and fusions are not shown. Lines headed by an entry give the natural chain unless they say otherwise; changes in a name come on top.
UniProt Q9NYJ7: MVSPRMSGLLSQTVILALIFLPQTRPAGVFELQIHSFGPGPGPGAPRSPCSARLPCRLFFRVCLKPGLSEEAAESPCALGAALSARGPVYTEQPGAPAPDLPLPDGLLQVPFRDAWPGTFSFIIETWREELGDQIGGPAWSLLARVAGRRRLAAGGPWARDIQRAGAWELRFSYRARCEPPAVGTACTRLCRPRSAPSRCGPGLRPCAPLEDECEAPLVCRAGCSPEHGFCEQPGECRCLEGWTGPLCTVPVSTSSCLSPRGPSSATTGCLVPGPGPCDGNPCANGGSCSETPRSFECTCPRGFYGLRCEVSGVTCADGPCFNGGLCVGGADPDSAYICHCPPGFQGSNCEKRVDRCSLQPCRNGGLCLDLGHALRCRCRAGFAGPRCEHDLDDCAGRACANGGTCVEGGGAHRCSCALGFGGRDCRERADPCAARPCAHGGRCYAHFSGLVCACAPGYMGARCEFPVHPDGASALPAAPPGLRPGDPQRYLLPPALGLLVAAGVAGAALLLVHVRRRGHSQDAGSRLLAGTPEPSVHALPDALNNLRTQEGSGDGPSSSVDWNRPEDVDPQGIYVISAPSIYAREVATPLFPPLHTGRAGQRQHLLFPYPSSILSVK

These are yes or no findings as the source states them, for the method shown. Some results given as binding are weak or reduced against the parent protein; the word gives no strength.

The assay deals with recombinant human DLL3 extracellular domain (R&D Systems, Cat #9749-DL) (human) (UniProt Q9NYJ7). As to the kind of experiment: phage ELISA after three rounds of panning on biotinylated recombinant human DLL3. A general note: ELISA stands for enzyme-linked immunosorbent assay.

B1: SEQ ID NO 617 (protein)
VH: EVQLVESGGLVQPGGSLRLSCAASGFNIESSYIGWVRRAPGKGEELVARIYPTNGYTRYADSVKGRFTISADTSKNTAYLQMNSLRAEDTAVYYCARYDEYDGYYYEAMDYSGQGTLVTVSS
For the molecule B1, the binding result is recorded as “binds”.
